Measurements taken from patent publication US20140294773A1.
Results are given in words; binding and its absence hold for the method and conditions named. In cells and extracts the contact can be indirect. Some results given as binding are weak or reduced against the parent protein; the word gives no strength. Sequences can lack the tags named with a protein. Blank lines part the entries; values can stand above or below the binder they belong to.

Legend:
[1] = molecular target: T1, CascadeΔCse1 with N-terminally Strep-tag II tagged Cse2 (Cse2, Cas7, Cas5, Cas6e) (Escherichia coli str. K-12 substr. MG1655) (UniProt P76632); experiment: co-expression and Strep-tag affinity co-purification, SDS-PAGE; J3 crRNA
T1 sequence 1: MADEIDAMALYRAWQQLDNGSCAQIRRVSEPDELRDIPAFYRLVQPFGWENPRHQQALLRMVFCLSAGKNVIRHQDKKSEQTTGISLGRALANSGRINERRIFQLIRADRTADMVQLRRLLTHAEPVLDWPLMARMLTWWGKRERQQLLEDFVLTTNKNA
T1 sequence 2: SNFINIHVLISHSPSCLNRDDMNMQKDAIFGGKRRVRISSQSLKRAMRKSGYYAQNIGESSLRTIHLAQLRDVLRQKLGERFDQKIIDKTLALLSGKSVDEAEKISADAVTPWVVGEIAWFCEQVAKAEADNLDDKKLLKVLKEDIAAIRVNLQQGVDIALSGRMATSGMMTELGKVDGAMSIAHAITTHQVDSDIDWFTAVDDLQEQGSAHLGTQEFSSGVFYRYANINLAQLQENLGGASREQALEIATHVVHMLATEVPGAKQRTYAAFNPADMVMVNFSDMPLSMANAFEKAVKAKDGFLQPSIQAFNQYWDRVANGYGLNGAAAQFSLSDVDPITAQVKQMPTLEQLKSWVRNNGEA
T1 sequence 3: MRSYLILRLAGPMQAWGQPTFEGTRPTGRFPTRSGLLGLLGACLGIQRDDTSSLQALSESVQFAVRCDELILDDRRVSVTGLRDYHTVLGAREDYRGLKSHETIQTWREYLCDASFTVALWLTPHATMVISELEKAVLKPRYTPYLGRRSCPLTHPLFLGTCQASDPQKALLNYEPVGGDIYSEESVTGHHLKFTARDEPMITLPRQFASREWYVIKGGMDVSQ
T1 sequence 4: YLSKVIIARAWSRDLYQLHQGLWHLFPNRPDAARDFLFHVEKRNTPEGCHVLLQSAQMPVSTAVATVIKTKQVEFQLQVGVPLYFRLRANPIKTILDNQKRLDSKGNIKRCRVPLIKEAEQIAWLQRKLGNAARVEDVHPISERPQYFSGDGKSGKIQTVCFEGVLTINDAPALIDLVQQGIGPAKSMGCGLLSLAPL

[2] = molecular target: T1, CascadeΔCse1 with N-terminally Strep-tag II tagged Cse2 (Cse2, Cas7, Cas5, Cas6e) (Escherichia coli str. K-12 substr. MG1655); experiment: co-expression and Streptactin affinity co-purification, SDS-PAGE; P7 crRNA
[3] = molecular target: T1, CascadeΔCse1 with N-terminally Strep-tag II tagged Cse2 (Cse2, Cas7, Cas5, Cas6e) (Escherichia coli str. K-12 substr. MG1655); experiment: co-expression and Streptactin affinity co-purification, SDS-PAGE; M13 crRNA

binding [1]: binds
B1: artificial E. coli Cas3-Cse1 fusion protein with the polypeptide linker sequence from S. griseus (protein)
chain: MEPFKYICHYWGKSSKSLTKGNDIHLLIYHCLDVAAVADCWWDQSVVLQNTFCRNEMLSKQRVKAWLLFFIALHDIGKFDIRFQYKSAESWLKLNPATPSLNGPSTQMCRKFNHGAAGLYWFNQDSLSEQSLGDFFSFFDAAPHPYESWFPWVEAVTGHHGFILHSQDQDKSRWEMPASLASYAAQDKQAREEWISVLEALFLTPAGLSINDIPPDCSSLLAGFCSLADWLGSWTTTNTFLFNEDAPSDINALRTYFQDRQQDASRVLELSGLVSNKRCYEGVHALLDNGYQPRQLQVLVDALPVAPGLTVIEAPTGSGKTETALAYAWKLIDQQIADSVIFALPTQATANAMLTRMEASASHLFSSPNLILAHGNSRFNHLFQSIKSRAITEQGQEEAWVQCCQWLSQSNKKVFLGQIGVCTIDQVLISVLPVKHRFIRGLGIGRSVLIVDEVHAYDTYMNGLLEAVLKAQADVGGSVILLSATLPMKQKQKLLDTYGLHTDPVENNSAYPLINWRGVNGAQRFDLLAHPEQLPPRFSIQPEPICLADMLPDLTMLERMIAAANAGAQVCLICNLVDVAQVCYQRLKELNNTQVDIDLFHARFTLNDRREKENRVISNFGKNGKRNVGRILVATQVVEQSLDVDFDWLITQHCPADLLFQRLGRLHRHHRKYRPAGFEIPVATILLPDGEGYGRHEHIYSNVRVMWRTQQHIEELNGASLFFPDAYRQWLDSIYDDAEMDEPEWVGNGMDKFESAECEKRFKARKVLQWAEEYSLQDNDETILAVTRDGEMSLPLLPYVQTSSGKQLLDGQVYEDLSHEQQYEALALNRVNVPFTWKRSFSEVVDEDGLLWLEGKQNLDGWVWQGNSIVITYTGDEGMTRVIPANPKGDPTNRAKGLEAVSVASMNLLIDNWIPVRPRNGGKVQIINLQSLYCSRDQWRLSLPRDDMELAALALLVCIGQIIAPAKDDVEFRHRIMNPLTEDEFQQLIAPWIDMFYLNHAEHPFMQTKGVKANDVTPMEKLLAGVSGATNCAFVNQPGQGEALCGGCTAIALFNQANQAPGFGGGFKSGLRGGTPVTTFVRGIDLRSTVLLNVLTLPRLQKQFPNESHTENQPTWIKPIKSNESIPASSIGFVRGLFWQPAHIELCDPIGIGKCSCCGQESNLRYTGFLKEKFTFTVNGLWPHPHSPCLVTVKKGEVEEKFLAFTTSAPSWTQISRVVVDKIIQNENGNRVAAVVNQFRNIAPQSPLELIMGGYRNNQASILERRHDVLMFNQGWQQYGNVINEIVTVGLGYKTALRKALYTFAEGFKNKDFKGAGVSVHETAERHFYRQSELLIPDVLANVNFSQADEVIADLRDKLHQLCEMLFNQSVAPYAHHPKLISTLALARATLYKHLRELKPQGGPSNG

binding [2]: binds
B2: FokI-(Sharkey-KKR)-Cse1 (protein)
chain: MAQLVKSELEEKKSELRHKLKYVPHEYIELIEIARNPTQDRILEMKVMEFFMKVYGYRGEHLGGSRKPDGAIYTVGSPIDYGVIVDTKAYSGGYNLPIGQADEMQRYVKENQTRNKHINPNEWWKVYPSSVTEFKFLFVSGHFKGNYKAQLTRLNRKTNCNGAVLSVEELLIGGEMIKAGTLTLEEVRRKFNNGEINFADPTNRAKGLEAVSVASMNLLIDNWIPVRPRNGGKVQIINLQSLYCSRDQWRLSLPRDDMELAALALLVCIGQIIAPAKDDVEFRHRIMNPLTEDEFQQLIAPWIDMFYLNHAEHPFMQTKGVKANDVTPMEKLLAGVSGATNCAFVNQPGQGEALCGGCTAIALFNQANQAPGFGGGFKSGLRGGTPVTTFVRGIDLRSTVLLNVLTLPRLQKQFPNESHTENQPTWIKPIKSNESIPASSIGFVRGLFWQPAHIELCDPIGIGKCSCCGQESNLRYTGFLKEKFTFTVNGLWPHPHSPCLVTVKKGEVEEKFLAFTTSAPSWTQISRVVVDKIIQNENGNRVAAVVNQFRNIAPQSPLELIMGGYRNNQASILERRHDVLMFNQGWQQYGNVINEIVTVGLGYKTALRKALYTFAEGFKNKDFKGAGVSVHETAERHFYRQSELLIPDVLANVNFSQADEVIADLRDKLHQLCEMLFNQSVAPYAHHPKLISTLALARATLYKHLRELKPQGGPSNG

binding [3]: binds
B3: FokI-(Sharkey-ELD)-Cse1 (protein)
chain: MAQLVKSELEEKKSELRHKLKYVPHEYIELIEIARNPTQDRILEMKVMEFFMKVYGYRGEHLGGSRKPDGAIYTVGSPIDYGVIVDTKAYSGGYNLPIGQADEMERYVEENQTRDKHLNPNEWWKVYPSSVTEFKFLFVSGHFKGNYKAQLTRLNHITNCNGAVLSVEELLIGGEMIKAGTLTLEEVRRKFNNGEINFADPTNRAKGLEAVSVASMNLLIDNWIPVRPRNGGKVQIINLQSLYCSRDQWRLSLPRDDMELAALALLVCIGQIIAPAKDDVEFRHRIMNPLTEDEFQQLIAPWIDMFYLNHAEHPFMQTKGVKANDVTPMEKLLAGVSGATNCAFVNQPGQGEALCGGCTAIALFNQANQAPGFGGGFKSGLRGGTPVTTFVRGIDLRSTVLLNVLTLPRLQKQFPNESHTENQPTWIKPIKSNESIPASSIGFVRGLFWQPAHIELCDPIGIGKCSCCGQESNLRYTGFLKEKFTFTVNGLWPHPHSPCLVTVKKGEVEEKFLAFTTSAPSWTQISRVVVDKIIQNENGNRVAAVVNQFRNIAPQSPLELIMGGYRNNQASILERRHDVLMFNQGWQQYGNVINEIVTVGLGYKTALRKALYTFAEGFKNKDFKGAGVSVHETAERHFYRQSELLIPDVLANVNFSQADEVIADLRDKLHQLCEMLFNQSVAPYAHHPKLISTLALARATLYKHLRELKPQGGPSNG
